Assays:
[1] = molecular target: T1, rabbit PXR (Oryctolagus cuniculus, UniProt Q9TU02); experiment: PXR activation luciferase reporter assay, rabbit PXR; conditions: relative to 50 μM 5α-pregnan-3,20-dione, assigned an efficacy of 1.0
T1 sequence (Q9TU02 1-411): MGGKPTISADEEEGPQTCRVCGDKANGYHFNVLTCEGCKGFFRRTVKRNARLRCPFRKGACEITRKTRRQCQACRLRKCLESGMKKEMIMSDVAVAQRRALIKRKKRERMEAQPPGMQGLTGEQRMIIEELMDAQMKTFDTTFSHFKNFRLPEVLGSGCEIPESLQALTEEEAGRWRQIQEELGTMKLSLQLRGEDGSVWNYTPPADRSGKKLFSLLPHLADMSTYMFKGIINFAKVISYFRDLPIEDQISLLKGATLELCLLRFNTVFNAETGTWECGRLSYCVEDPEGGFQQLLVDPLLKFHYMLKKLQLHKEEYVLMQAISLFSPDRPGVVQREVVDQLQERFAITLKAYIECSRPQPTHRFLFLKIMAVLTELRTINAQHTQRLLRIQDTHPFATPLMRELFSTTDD

[2] = molecular target: T2, mouse PXR (Mus musculus, UniProt O54915); conditions: relative to 20 μM pregnenolone 16α-carbonitrile, assigned an efficacy of 1.0
T2 sequence (O54915 1-431): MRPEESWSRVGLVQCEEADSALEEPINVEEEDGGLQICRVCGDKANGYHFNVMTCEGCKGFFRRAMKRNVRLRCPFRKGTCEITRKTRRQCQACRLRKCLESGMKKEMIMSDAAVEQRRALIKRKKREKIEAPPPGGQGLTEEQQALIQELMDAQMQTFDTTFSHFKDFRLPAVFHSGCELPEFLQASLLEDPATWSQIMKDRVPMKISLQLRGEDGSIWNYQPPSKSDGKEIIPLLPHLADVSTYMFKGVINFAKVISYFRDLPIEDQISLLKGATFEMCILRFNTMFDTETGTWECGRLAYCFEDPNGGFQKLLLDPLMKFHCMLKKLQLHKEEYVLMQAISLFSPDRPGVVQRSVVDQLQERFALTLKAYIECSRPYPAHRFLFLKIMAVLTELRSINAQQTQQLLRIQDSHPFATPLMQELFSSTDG

[3] = molecular target: T3, human PXR (Homo sapiens, UniProt O75469)
T3 sequence (O75469 1-434): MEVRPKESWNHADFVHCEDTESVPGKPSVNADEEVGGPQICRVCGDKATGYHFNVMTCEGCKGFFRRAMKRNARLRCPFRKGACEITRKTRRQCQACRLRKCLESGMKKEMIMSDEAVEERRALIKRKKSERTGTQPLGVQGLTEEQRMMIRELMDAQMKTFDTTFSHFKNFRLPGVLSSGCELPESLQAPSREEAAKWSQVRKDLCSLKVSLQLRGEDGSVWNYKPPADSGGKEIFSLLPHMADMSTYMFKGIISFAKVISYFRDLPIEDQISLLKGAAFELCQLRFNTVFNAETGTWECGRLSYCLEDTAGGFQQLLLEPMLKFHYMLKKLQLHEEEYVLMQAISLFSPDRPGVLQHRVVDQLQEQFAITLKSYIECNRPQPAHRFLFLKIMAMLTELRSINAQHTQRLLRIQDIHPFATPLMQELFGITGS

[4] = molecular target: T4, rat PXR (Rattus norvegicus, UniProt Q9R1A7); conditions: relative to 20 μM pregnenolone 16α-carbonitrile, assigned an efficacy of 1.0
T4 sequence (Q9R1A7 1-431): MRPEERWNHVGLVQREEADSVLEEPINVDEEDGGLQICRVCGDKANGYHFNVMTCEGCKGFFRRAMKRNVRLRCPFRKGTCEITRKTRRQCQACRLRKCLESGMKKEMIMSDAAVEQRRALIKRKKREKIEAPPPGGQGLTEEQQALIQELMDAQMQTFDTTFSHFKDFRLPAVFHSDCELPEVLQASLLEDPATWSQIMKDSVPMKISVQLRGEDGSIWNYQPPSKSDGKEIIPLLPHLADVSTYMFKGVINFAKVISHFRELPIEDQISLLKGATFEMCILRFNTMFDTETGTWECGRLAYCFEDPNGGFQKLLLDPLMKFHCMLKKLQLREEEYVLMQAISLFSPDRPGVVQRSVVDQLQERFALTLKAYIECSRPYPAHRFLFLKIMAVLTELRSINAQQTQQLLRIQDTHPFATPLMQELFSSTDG

[5] = test system: HepG2 cells; conditions: human, 24 hr

Q: Which “Rabbit PXR efficacy, ε” value [1] does the source give for `COC(=O)C1=C(C)NC(C)=C(C(=O)OC)C1c1ccccc1[N+](=O)[O-]` [MI22, Nifedipine] here?
A: The value was 4.61 (ε = 0.29).

Q: What about the “Mouse PXR efficacy, ε” value [2] of the same compound?
A: Its value is 4.64 (ε = 0.51).

Q: And the “hPXR Efficacy” value [3]?
A: The value was 0.41.

Q: What about the “Rat PXR efficacy, ε” value [4] of the same compound?
A: Its value is 5.26 (ε = 0.68).

Q: What about the Toxicity [5] of the same compound?
A: The Toxicity was 50 µM.

Source: paper PMC2358886, “Evolution of pharmacologic specificity in the pregnane X receptor” (BMC Evolutionary Biology, 2008)
